The test system of this assay is BDF1 mice, intracerebral L1210 leukemia, survival T/C. The assay can be described thus: NCI In Vivo Anticancer Drug Screen. Data for tumor model L1210 Leukemia (intracerebral) in B6D2F1 (BDF1) mice. As to conditions: higher T/C = longer survival. Summed up:
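Transplantable tumour-bearing mice, compound-treated vs vehicle controls; read-out survival, reported as T/C ratio.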

Setting [1] is: T/C endpoint: mean survival time, dose: 3.0 mg/kg/injection, schedule: Q01DX009 (ip), vehicle: saline.
Setting [2] is: T/C endpoint: mean survival time, dose: 600.0 mg/kg/injection, schedule: Q01DX001 (ip), vehicle: carboxymethylcellulose (CMC).

The list does not hold the whole screen: it is rich in T/C values a quarter to a half above the control, in often repeated tests (any T/C) and in doses without a T/C. Further doses and runs are listed elsewhere. T/C gives the treated animals as a percentage of the vehicle group. Some entries give survivors of the animals treated and no T/C: the source files T/C as zero there, which appears to mark a toxic dose or a test without result, not a measured value. Some doses without a T/C left all or most animals alive at the check, yet need not have been tolerated: the source hardly ever lists a survival T/C far under the control, and the zero likely stands for such cases as well. Survivors were counted at the toxicity check, usually on the fifth day, unless a day is given; later deaths do not show. Schedule codes are those of the source, taken here to give the interval after Q, in days (D) or hours (H), and the number of doses after X. Some molecules as drawn cover several salts, stereoisomers or complexes of the source; a dose is that of the sample tested. Where survival is the endpoint, the PubChem record calls one and a half times the control and up active, and a quarter to a half above the control has no call in these data; cut-offs in other NCI protocols can differ. Some doses were run more than once; their values stand side by side, smallest first. Some T/C values are followed by the survivors on the day toxicity was checked, most often the fifth; without a count, all were alive then.

On to `O=NN(CCCl)C(=O)NC1CCS(=O)(=O)C1` (centres undefined) (tested in a mixture with another compound), for which the T/C is, setting by setting: (T/C endpoint: mean survival time, dose: 7.0 mg/kg/injection, schedule: Q01DX001 (ip), vehicle: other) 131 % of control; (T/C endpoint: mean survival time, dose: 11.0 mg/kg/injection, schedule: Q01DX001 (ip), vehicle: other) 143 % of control; (T/C endpoint: mean survival time, dose: 24.0 mg/kg/injection, schedule: Q01DX001 (ip), vehicle: other) 133 % of control; (T/C endpoint: mean survival time, dose: 32.0 mg/kg/injection, schedule: Q01DX001 (oral), vehicle: other) 148 % of control; (T/C endpoint: mean survival time, dose: 72.0 mg/kg/injection, schedule: Q01DX001 (oral), vehicle: other) 125 % of control.
Turning to `CC(=O)NC1=C(N2CC2C)C(=O)C(NC(C)=O)=C(N2CC2C)C1=O` (centres undefined), the survivor count is recorded as 5 of 6 (T/C endpoint: mean survival time, dose: 20.0 mg/kg/injection, schedule: Q01DX009 (ip), vehicle: saline); 6 of 6 (T/C endpoint: mean survival time, dose: 40.0 mg/kg/injection, schedule: Q01DX009 (ip), vehicle: saline with Tween-80); 2 of 6 (T/C endpoint: mean survival time, dose: 40.0 mg/kg/injection, schedule: Q01DX009 (ip), vehicle: saline).
Consider `O=NN(CCCl)C(=O)N[C@@H]1CCCC[C@H]1O`, for which the survivor count is, setting by setting: (T/C endpoint: mean survival time, dose: 40.0 mg/kg/injection, schedule: Q01DX001 (ip), vehicle: saline with Tween-80) 9 of 10; (T/C endpoint: mean survival time, dose: 60.0 mg/kg/injection, schedule: Q01DX001 (ip), vehicle: saline with Tween-80) 9 of 10; (T/C endpoint: mean survival time, dose: 90.0 mg/kg/injection, schedule: Q01DX001 (ip), vehicle: saline with Tween-80) 8 of 10; (T/C endpoint: mean survival time, dose: 133.0 mg/kg/injection, schedule: Q01DX001 (ip), vehicle: saline with Tween-80) 6 of 10; (T/C endpoint: mean survival time, dose: 200.0 mg/kg/injection, schedule: Q01DX001 (ip), vehicle: saline with Tween-80) 0 of 10.
On to `CN(N=O)C(=O)NC(=O)N(C)N=O`, for which the survivor count (T/C endpoint: mean survival time, dose: 108.0 mg/kg/injection, schedule: Q01DX001 (ip), vehicle: carboxymethylcellulose (CMC)) is reported as 8 of 10; the survivor count (T/C endpoint: mean survival time, dose: 216.0 mg/kg/injection, schedule: Q01DX001 (ip), vehicle: carboxymethylcellulose (CMC)) is on record as 0 of 10; the survivor count (T/C endpoint: mean survival time, dose: 432.0 mg/kg/injection, schedule: Q01DX001 (ip), vehicle: carboxymethylcellulose (CMC)) is recorded as 0 of 10.
As for `CCNC1=C(N2CC2)C(=O)C(NCC)=C(N2CC2)C1=O`, the T/C is 135 % of control (T/C endpoint: mean survival time, dose: 0.75 mg/kg/injection, schedule: Q01DX009 (ip), vehicle: saline); 125 and 130 % of control (T/C endpoint: mean survival time, dose: 1.5 mg/kg/injection, schedule: Q01DX009 (ip), vehicle: saline); 140 and 144 % of control under setting [1]. Besides, the survivor count by setting is: under setting [1], 6 of 6; (T/C endpoint: mean survival time, dose: 6.0 mg/kg/injection, schedule: Q01DX009 (ip), vehicle: saline) 5 of 6; (T/C endpoint: mean survival time, dose: 12.0 mg/kg/injection, schedule: Q01DX009 (ip), vehicle: saline) 4 of 6.
With `Cc1nc(N)nc(N)c1-c1ccc(Cl)c(Cl)c1`, the T/C (T/C endpoint: median survival time, dose: 2.5 mg/kg/injection, schedule: Q01DX009 (ip), vehicle: saline) was 138 % of control. Further, the survivor count (T/C endpoint: median survival time, dose: 20.0 mg/kg/injection, schedule: Q01DX009 (ip), vehicle: saline) is recorded as 10 of 10.
Take `N=c1ccn2c(n1)OC1C(O)C(CO)OC12` (centres undefined): the T/C was 130 % of control [7 of 8 alive] (T/C endpoint: mean survival time, dose: 400.0 mg/kg/injection, schedule: Q08DX009 (ip), vehicle: water); 144 % of control (T/C endpoint: mean survival time, dose: 600.0 mg/kg/injection, schedule: Q08DX009 (ip), vehicle: water); 148 % of control [6 of 8 alive] (T/C endpoint: mean survival time, dose: 800.0 mg/kg/injection, schedule: Q08DX009 (ip), vehicle: water); 148 % of control (T/C endpoint: median survival time, dose: 39.0 mg/kg/injection, schedule: Q01DX009 (ip), vehicle: water, evaluated on day 5); 148 % of control (T/C endpoint: median survival time, dose: 39.0 mg/kg/injection, schedule: Q01DX009 (ip), vehicle: water, evaluated on day 60); 190, 201, 214 % of control (T/C endpoint: median survival time, dose: 180.0 mg/kg/injection, schedule: Q01DX009 (ip), vehicle: water, evaluated on day 5). For the same compound, the T/C (T/C endpoint: median survival time, dose: 180.0 mg/kg/injection, schedule: Q01DX009 (ip), vehicle: water, evaluated on day 60) is 190 % of control; the T/C (T/C endpoint: median survival time, dose: 180.0 mg/kg/injection, schedule: Q01DX009 (ip), vehicle: water, evaluated on day 64) was 201 and 214 % of control; the T/C (T/C endpoint: median survival time, dose: 300.0 mg/kg/injection, schedule: Q01DX009 (ip), vehicle: water, evaluated on day 5) is reported as 223, 224, 259 % of control; the T/C (T/C endpoint: median survival time, dose: 300.0 mg/kg/injection, schedule: Q01DX009 (ip), vehicle: water, evaluated on day 60) is 223 % of control; the T/C (T/C endpoint: median survival time, dose: 300.0 mg/kg/injection, schedule: Q01DX009 (ip), vehicle: water, evaluated on day 64) is 224 and 259 % of control [7 of 8 alive]; the T/C (T/C endpoint: median survival time, dose: 500.0 mg/kg/injection, schedule: Q01DX009 (ip), vehicle: water, evaluated on day 5) is on record as 238, 386, 611 % of control. Besides, the T/C is 386 % of control (T/C endpoint: median survival time, dose: 500.0 mg/kg/injection, schedule: Q01DX009 (ip), vehicle: water, evaluated on day 60); 238 and 611 % of control (T/C endpoint: median survival time, dose: 500.0 mg/kg/injection, schedule: Q01DX009 (ip), vehicle: water, evaluated on day 64); 76 and 86 % of control (T/C endpoint: median survival time, dose: 833.0 mg/kg/injection, schedule: Q01DX009 (ip), vehicle: water, evaluated on day 5); 86 % of control [7 of 8 alive] (T/C endpoint: median survival time, dose: 833.0 mg/kg/injection, schedule: Q01DX009 (ip), vehicle: water, evaluated on day 64). The survivor count is, setting by setting: (T/C endpoint: mean survival time, dose: 800.0 mg/kg/injection, schedule: Q01DX009 (oral), vehicle: water) 4 of 8; (T/C endpoint: median survival time, dose: 800.0 mg/kg/injection, schedule: Q01DX009 (ip), vehicle: water) 4 of 8; (T/C endpoint: median survival time, dose: 833.0 mg/kg/injection, schedule: Q01DX009 (ip), vehicle: water) 6 of 8.
`CS(=O)(=O)Nc1ccc(Nc2c3ccccc3nc3cc([N+](=O)[O-])ccc23)cc1`: the survivor count runs as follows: (T/C endpoint: mean survival time, dose: 10.0 mg/kg/injection, schedule: Q01DX009 (ip), vehicle: Klucel (hydroxypropylcellulose) (HPC)) 9 of 10; (T/C endpoint: mean survival time, dose: 100.0 mg/kg/injection, schedule: Q01DX001 (ip), vehicle: saline) 6 of 10.
Take `CC1(NC(=O)N(CCCl)N=O)CCCC1`: under “T/C endpoint: mean survival time, dose: 375.0 mg/kg/injection, schedule: Q01DX001 (ip), vehicle: carboxymethylcellulose (CMC)”, the survivor count is reported as 10 of 10.
For the compound `Cc1cc(C)c(NC(=O)N(CCCl)N=O)c(C)c1`, the T/C is, setting by setting: (T/C endpoint: mean survival time, dose: 20.0 mg/kg/injection, schedule: Q01DX001 (ip), vehicle: other) 144 % of control; (T/C endpoint: mean survival time, dose: 25.0 mg/kg/injection, schedule: Q01DX001 (ip), vehicle: other) 125 % of control; (T/C endpoint: mean survival time, dose: 30.0 mg/kg/injection, schedule: Q01DX001 (ip), vehicle: other) 125 and 134 % of control; (T/C endpoint: mean survival time, dose: 38.0 mg/kg/injection, schedule: Q01DX001 (ip), vehicle: other) 148 % of control; (T/C endpoint: mean survival time, dose: 45.0 mg/kg/injection, schedule: Q01DX001 (ip), vehicle: other) 129 and 134 % of control; (T/C endpoint: mean survival time, dose: 57.0 mg/kg/injection, schedule: Q01DX001 (ip), vehicle: other) 144 % of control. Besides, the T/C is 141 % of control (T/C endpoint: mean survival time, dose: 68.0 mg/kg/injection, schedule: Q01DX001 (ip), vehicle: other) and 140 % of control (T/C endpoint: mean survival time, dose: 86.0 mg/kg/injection, schedule: Q01DX001 (ip), vehicle: other).
Regarding `CN(N=O)C(=O)Nc1ccccc1`, the survivor count is reported as 7 of 10 under setting [2]; 0 of 10 (T/C endpoint: mean survival time, dose: 1200.0 mg/kg/injection, schedule: Q01DX001 (ip), vehicle: carboxymethylcellulose (CMC)); 0 of 10 (T/C endpoint: mean survival time, dose: 2400.0 mg/kg/injection, schedule: Q01DX001 (ip), vehicle: carboxymethylcellulose (CMC)).
Turning to `CNC(=O)NC(=O)N(C)N=O`, the survivor count (T/C endpoint: mean survival time, dose: 262.0 mg/kg/injection, schedule: Q01DX001 (ip), vehicle: carboxymethylcellulose (CMC)) is 9 of 10.
For `O=NN(CCO)C(=O)Nc1c[nH]c(=O)[nH]c1=O`, the survivor count under setting [2] is recorded as 4 of 10.

Source of the values: PubChem BioAssay AID252 (DTP/NCI, 2004).
